Among the data in US20260193355A1 are binding values, retold here.

Test [1] addresses T1, His-tagged canine PD-L1 protein (6xHis tagged extracellular domain of cPD-L1) (canine) (UniProt E2RKZ5).
T1 sequence: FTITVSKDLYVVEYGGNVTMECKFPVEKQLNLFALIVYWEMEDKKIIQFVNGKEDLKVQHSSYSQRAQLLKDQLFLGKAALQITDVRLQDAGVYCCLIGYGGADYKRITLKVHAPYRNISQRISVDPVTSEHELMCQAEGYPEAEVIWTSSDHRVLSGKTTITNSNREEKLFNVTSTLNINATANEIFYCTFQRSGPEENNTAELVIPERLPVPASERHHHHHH
The test can be described thus: Octet biolayer interferometry, His-tagged cPD-L1 on NTA biosensor, antibody in solution. Background: In BLI a coated tip is dipped into the sample, and binding shifts an interference pattern.

The target of test [2] is T1, His-tagged canine PD-L1 protein (6xHis tagged extracellular domain of cPD-L1) (canine). The test can be described thus: ELISA, bound Ab as OD450. A general note: In an ELISA, binding on a coated surface is turned into a signal by an enzyme label.

These are yes or no findings as the source states them, for the method shown. Some binding calls cover weakened binding; strength is not graded here. Tags and fused reporters may be left off the sequences shown.

B1: cPD-L1 12C10E4 chimeric antibody (mouse variable domains, canine IgG2 heavy and canine kappa light constant domains) (antibody, V domains shown)
VH: QVQLKQSGPGLVQPSQSLSITCTISGFSLTSFGVHWVRQSPGKGLEWLGVIWSGGSTDYNAAFTSRLSINKDNSKSQVFFKMNSLQADDTAIYYCARGGGPDWYFDVWGTGTTVTVSS
VL: DIVLTQSPASLAVSLGQRATISCRASESVEYYGTSLMQWYQQKPGQPPKLLIFAASNVKSGVPARFSGSGSGTDFSLNIHPVEEDDIAMYFCQQSGKVPHTFGGGTKLEIKR
Take B1: the binding result in test [1] and in test [2] was “binds” throughout.
